Not every detail of the peptide structures is certain; ends, links or a residue may be inferred.
Key:
[1] = system: Herpes Simplex Virus Type 1; assay: Plaque reduction assay in Vero cells; type: cell-based; settings: concentrations up to 62.5 ppm
[2] = system: Salmonella typhimurium and Clostridium botulinum; type: cell-based; settings: food preservative; Example 16

With `CCCCCCCCNC(=O)[C@H](CCCNC(=N)N)NC(=O)[C@H](CCCNC(=N)N)NC(=O)CCCCCCC` [Octanoyl-Arg-Arg-NH-octyl] the “viral inhibition (in words)” value [1] was “No significant viral inhibition” and the MIC [2] was “≦ 4 μg/ml”.
